Where “and” joins values, the source holds several entries; their conditions need not be identical. Equal values may be shown once. Where a name gives a salt, the structure may show the parent alone. ± gives the standard deviation of the averaged measurements. The list shows a part of the results. Many values rest on one well or one pass, so single values are uncertain.
Test system: RAW 264.7
Assay: cell viability (MTT) relative to vehicle control; higher = more viable cells
Settings: stimulus: HMGB1 5 ug/ml, 18 h
[1] = compound concentration: 1 ug/ml

SMILES | cell viability (compound concentration: 3 uM) | cell viability [1] [%]
c1ccc(CCCN2CCN(CCOC(c3ccccc3)c3ccccc3)CC2)cc1 | 106% | –
CC(C)C[C@H]1C(=O)N2CCC[C@H]2[C@]2(O)O[C@](NC(=O)[C@@H]3C=C4c5cccc6[nH]c(Br)c(c56)C[C@H]4N(C)C3)(C(C)C)C(=O)N12 [Bromocriptine] | 119% | –
CC(C)C[C@H]1C(=O)N2CCC[C@H]2[C@]2(O)O[C@](NC(=O)[C@@H]3C=C4c5cccc6[nH]c(Br)c(c56)C[C@H]4N(C)C3)(C(C)C)C(=O)N12 [Bromocryptine mesylate] | 87.5% | –
CC(C)C[C@H]1C(=O)N2CCC[C@H]2[C@]2(O)O[C@](NC(=O)[C@@H]3C=C4c5cccc6[nH]c(Br)c(c56)C[C@H]4N(C)C3)(C(C)C)C(=O)N12 | 106% | –
CC(C)C[C@H]1C(=O)N2CCC[C@H]2[C@]2(O)O[C@](NC(=O)[C@@H]3C=C4c5cccc6[nH]c(Br)c(c56)C[C@H]4N(C)C3)(C(C)C)C(=O)N12 [(+)-Bromocriptine methanesulfonate] | 94.6% | –
C=CCN1CC[C@]23c4c5ccc(O)c4O[C@H]2/C(=N/N=C2\CC[C@@]4(O)[C@H]6Cc7ccc(O)c8c7[C@@]4(CCN6CC=C)[C@H]2O8)CC[C@@]3(O)[C@H]1C5 [Naloxonazine dihydrochloride] | 99.1% | –
C=CCN1CC[C@]23c4c5ccc(O)c4O[C@H]2/C(=N/N=C2\CC[C@@]4(O)[C@H]6Cc7ccc(O)c8c7[C@@]4(CCN6CC=C)[C@H]2O8)CC[C@@]3(O)[C@H]1C5 [Naloxonazine] | 103% | –
COc1cc(C(O)CN)ccc1O (racemic) [(±)-Normetanephrine hydrochloride] | 109% | –
C[C@]12CCC(=O)C=C1CC[C@@H]1[C@@H]2CC[C@@]2(C)[C@H]1CC[C@]2(C)O [Methyltestosterone] | 91.9% | –
CN1[C@@H]2CC[C@H]1C[C@@H](OC(=O)C(CO)c1ccccc1)C2 (stereo partly specified) | 101% | –
CN1[C@@H]2CC[C@H]1C[C@@H](OC(=O)C(CO)c1ccccc1)C2 (stereo partly specified) [Atropine sulfate] | 107% | –
CN1[C@@H]2CC[C@H]1C[C@@H](OC(=O)C(CO)c1ccccc1)C2 (stereo partly specified) [Atropine] | 119% | 92.3
CN1[C@@H]2CC[C@H]1C[C@@H](OC(=O)C(CO)c1ccccc1)C2 (stereo partly specified) [Atropine sulfate monohydrate] | 112% | –
CC(C)NCC(O)c1ccc(N)c(C#N)c1 (stereo unspecified) [Cimaterol] | 96.4% | –
CNCC(O)c1ccc(O)cc1 (stereo unspecified) | 108% and 96.9% | –
CCC1=C[C@H]2CN3CCc4c([nH]c5ccccc45)[C@](C(=O)OC)(C2)[C@H]13 [Catharanthine] | 103% | –
O=C(Cc1ccc(Cl)c(Cl)c1)N1CCCCC1CN1CCCC1 (stereo unspecified) | 117% | –
C#CCOC(=O)C1=CCCN(C)C1 [Arecaidine propargyl ester hydrobromide] | 93.8% | –
NCC(CP(=O)(O)O)c1ccc(Cl)cc1 (stereo unspecified) [Phaclofen] | 108% | –
c1ccc(C2CC2)c(OCC2=NCCN2)c1 [Cirazoline hydrochloride] | 109% | –
c1ccc(C2CC2)c(OCC2=NCCN2)c1 [Cirazoline] | 107% | –
CCCC(=O)OCC[N+](C)(C)C [Butyrylcholine] | 105% | –
CN1[C@@H]2CC[C@H]1C[C@@H](OC(c1ccccc1)c1ccccc1N)C2 (stereo partly specified) [Aminobenztropine] | 97.5% | –
CCOP(=S)(OCC)Oc1cc(C)nc(C(C)C)n1 | 109% | –
CNC(C)(C)Cc1ccccc1 [Mephentermine hemisulfate] | 118% | –
CNC(C)(C)Cc1ccccc1 | 109% | –

SMILES | cell viability (compound concentration: 3 uM) | cell viability [1] [%]
C[C@]12CCC(=O)C(O)=C1CC[C@@H]1[C@@H]2CC[C@]2(C)C(=O)CC[C@@H]12 | 120 ± 16% | –
C[C@]12CCC(=O)C(O)=C1CC[C@@H]1[C@@H]2CC[C@]2(C)C(=O)CC[C@@H]12 [Formestane] | 102 ± 13% | –
CCN(CC)CCOC(=O)C(O)(c1ccccc1)c1ccccc1 | 97.1% | –
CNC(=O)Oc1ccc2c(c1)[C@]1(C)CCN(C)[C@@H]1N2C [Eserine] | – | 88.2
CNC(=O)Oc1ccc2c(c1)[C@]1(C)CCN(C)[C@@H]1N2C [Eserine sulfate, physostigmine sulfate] | 109% | –
CNC(=O)Oc1ccc2c(c1)[C@]1(C)CCN(C)[C@@H]1N2C [(-)-Physostigmine] | 109% | –
CNC(=O)Oc1ccc2c(c1)[C@]1(C)CCN(C)[C@@H]1N2C [Physostigmine] | 98.68 ± 0.71% | –
CNC(=O)Oc1ccc2c(c1)[C@]1(C)CCN(C)[C@@H]1N2C | 110% | –
CN(C)C(=O)Oc1cccc([N+](C)(C)C)c1 [Neostigmine bromide] | 117 ± 5.3% | –
CN(C)C(=O)Oc1cccc([N+](C)(C)C)c1 | 110% | –
CN(C)C(=O)Oc1cccc([N+](C)(C)C)c1 [Neostigmine] | 102% | –
CN1[C@H]2C[C@H](OC(=O)[C@H](CO)c3ccccc3)C[C@@H]1[C@@H](O)C2 | 110% | –
COc1ccc(C(CN(C)C)C2(O)CCCCC2)cc1 (stereo unspecified) | 94.4% and 111% | –
COc1ccc(C(CN(C)C)C2(O)CCCCC2)cc1 (stereo unspecified) [Venlafaxine] | 107 ± 1.1% | –
COc1ccc(C(CN(C)C)C2(O)CCCCC2)cc1 (stereo unspecified) [Venlafaxine hydrochloride] | 95.5% | –
CCN(CCCl)Cc1ccccc1Br [DSP-4 hydrochloride] | 102% | –
CCNCC(O)c1cccc(O)c1 (stereo unspecified) [Etilefrine hydrochloride] | 94.3% | –
O=c1c(O)c(-c2ccc(O)c(O)c2)oc2c(O)c(O)cc(O)c12 [Gossypetin] | – | 90.7
CN1CCc2cc3c(cc2C1O)OCO3 (stereo unspecified) [Hydrastinine hydrochloride] | 102% | 107
CN1CCc2cc3c(cc2C1O)OCO3 (stereo unspecified) | 114% | –
COc1ccc2[nH]cc(C3=CCNCC3)c2c1 | 99.5% | –
CC(C)(N)Cc1ccccc1 [Phentermine hydrochloride] | 102% | –
CC(C)(N)Cc1ccccc1 | 104% | –
CN(CC[C@H](N)CC(=O)N[C@H]1C=C[C@H](n2ccc(N)nc2=O)O[C@@H]1C(=O)O)C(=N)N | 129% | –
CC(N)c1cccc(Cl)c1Cl (racemic) [(±)-2,3-Dichloro-alpha-methylbenzylamine hydrochloride] | 91.3% | –
CCCCC(C#N)(Cn1cncn1)c1ccc(Cl)cc1 (stereo unspecified) [Myclobutanil] | 84.3% | –

Some of the entries above in a different format:
CN1CCc2cc3c(cc2C1O)OCO3 (stereo unspecified)
  cell viability (compound concentration: 3 uM): 114%
COc1ccc2[nH]cc(C3=CCNCC3)c2c1
  cell viability (compound concentration: 3 uM): 99.5%
CC(C)(N)Cc1ccccc1 [Phentermine hydrochloride]
  cell viability (compound concentration: 3 uM): 102%

Looked up one by one from the list above:
SMILES | cell viability (compound concentration: 3 uM) | cell viability [1] [%]
COc1ccc(C(CN(C)C)C2(O)CCCCC2)cc1 (stereo unspecified) | 94.4% and 111% | –
COc1ccc(C(CN(C)C)C2(O)CCCCC2)cc1 (stereo unspecified) [Venlafaxine] | 107 ± 1.1% | –

(listing goes on)

SMILES | cell viability (compound concentration: 3 uM) | cell viability [1] [%]
COc1ccc(C(=O)c2c(C)n(CCN3CCOCC3)c3ccccc23)cc1 [Pravadoline] | 99.2% | –
C=CCN1CC[C@]23CCCC[C@H]2[C@H]1Cc1ccc(O)cc13 [Levallorphan tartrate] | 101% | –
C=CCN1CC[C@]23CCCC[C@H]2[C@H]1Cc1ccc(O)cc13 [Levallorphan] | 104% | –
CC(=O)Nc1cc([As](=O)(O)O)ccc1O | 98.4 ± 4.8% | –
Cc1cc2c(C(C)C)c(O)c(O)c(C=O)c2c(O)c1-c1c(C)cc2c(C(C)C)c(O)c(O)c(C=O)c2c1O | 112% | 111
Cc1cc2c(C(C)C)c(O)c(O)c(C=O)c2c(O)c1-c1c(C)cc2c(C(C)C)c(O)c(O)c(C=O)c2c1O [Gossypol] | 88% | –
CCCN1CC[C@@H]2c3cc(O)ccc3CC[C@@H]21 (racemic) [cis(+/-)-8-OH-PBZI hydrobromide] | 99.3% | –
O=c1[nH]c2ccccc2n1C1CCN(CCCC(c2ccc(F)cc2)c2ccc(F)cc2)CC1 [Pimozide] | 106 ± 3.5% | –
O=c1[nH]c2ccccc2n1C1CCN(CCCC(c2ccc(F)cc2)c2ccc(F)cc2)CC1 | 105% | –
CC(=O)[O][Hg][c]1ccccc1 | 9.91 ± 9.9% | –
CC(=O)NCCc1c[nH]c2ccccc12 [N-Acetyltryptamine] | 113% | –
c1cc2c(cc1[C@H]1OC[C@H]3[C@@H]1CO[C@H]3c1ccc3c(c1)OCO3)OCO2 [(-)-Asarinin] | – | 83.1
C[C@]12CC[C@@H](O)C[C@H]1CC[C@@H]1[C@@H]2CC[C@]2(C)C(=O)CC[C@@H]12 [3-alpha-Hydroxy-5-beta-androstan-17-one] | 114% | –
C#CCN(C)[C@H](C)Cc1ccccc1 | 97.4% | –
C#CCN(C)[C@H](C)Cc1ccccc1 [Selegiline hydrochloride] | 86.2% | –
C#CCN(C)[C@H](C)Cc1ccccc1 [Benzeneethanamine, N,Alpha-dimethyl-N-2-propynyl-(R)- [CAS]] | 97.2% | –
C=C[C@H]1CN2CC[C@H]1C[C@H]2c1[nH]c2ccccc2c1CCO [Cinchonamine] | – | 91.5
C[C@@H]1O[C@@H](O[C@@H]2C=C3CC[C@@H]4[C@H](CC[C@]5(C)[C@@H](c6ccc(=O)oc6)CC[C@]45O)[C@@]3(C)CC2)[C@H](O)[C@H](O)[C@H]1O [Proscillaridin A] | 88.6% | –
C[C@@H]1O[C@@H](O[C@@H]2C=C3CC[C@@H]4[C@H](CC[C@]5(C)[C@@H](c6ccc(=O)oc6)CC[C@]45O)[C@@]3(C)CC2)[C@H](O)[C@H](O)[C@H]1O | 114% | –
C[C@@H]1O[C@@H](O[C@@H]2C=C3CC[C@@H]4[C@H](CC[C@]5(C)[C@@H](c6ccc(=O)oc6)CC[C@]45O)[C@@]3(C)CC2)[C@H](O)[C@H](O)[C@H]1O [proscillaridin A] | – | 104
O=C(c1ccccc1)N1CC2CC(C1)c1cccc(=O)n1C2 (stereo unspecified) | – | 93.9
CN(C)C(=O)Oc1ccc[n+](C)c1 | 109% | –
CN(C)C(=O)Oc1ccc[n+](C)c1 [Pyridostigmine bromide] | 103% | –
NCCCNCCSP(=O)(O)O | 106% | –
NCCCNCCSP(=O)(O)O [Amifostine] | 106 ± 7.1% | –
CC1OC(OC2/C=C/C=C/C=C/C=C/CC/C=C/C=C/[C@H](C)[C@@H](O)[C@@H](C)[C@H](C)OC(=O)CC(O)CC(O)CC(O)CCC(O)C(O)C[C@]3(O)CC(O)C(C(=O)O)C(C2)O3)C(O)C(N)C1O (stereo partly specified) [Nystatine] | 101% | –

— the supplement of paper PMC3682954
